# Laboratory results published in the supplement of paper PMC10849652.
# Amino acid sequences for entries named in this document (tags omitted). A change or cut given only in a name is not applied to a line headed by its entry.
# UniProt P38606, whole entry, looked up: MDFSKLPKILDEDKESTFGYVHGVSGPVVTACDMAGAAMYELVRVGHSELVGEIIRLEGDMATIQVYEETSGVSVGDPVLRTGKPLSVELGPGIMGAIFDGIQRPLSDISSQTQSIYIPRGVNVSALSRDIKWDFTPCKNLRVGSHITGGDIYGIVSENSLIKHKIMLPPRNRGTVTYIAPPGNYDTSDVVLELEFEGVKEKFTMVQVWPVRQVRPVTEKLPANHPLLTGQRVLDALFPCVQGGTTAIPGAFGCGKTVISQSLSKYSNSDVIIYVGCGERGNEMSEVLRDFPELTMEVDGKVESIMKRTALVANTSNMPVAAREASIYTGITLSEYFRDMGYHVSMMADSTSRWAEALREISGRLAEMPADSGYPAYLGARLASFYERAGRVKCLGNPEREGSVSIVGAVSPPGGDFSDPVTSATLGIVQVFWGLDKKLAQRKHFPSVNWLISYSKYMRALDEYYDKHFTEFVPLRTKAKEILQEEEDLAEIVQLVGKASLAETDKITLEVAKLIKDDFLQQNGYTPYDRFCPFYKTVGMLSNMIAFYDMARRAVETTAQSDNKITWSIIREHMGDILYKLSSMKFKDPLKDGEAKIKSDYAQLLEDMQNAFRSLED
# UniProt Q96BY7: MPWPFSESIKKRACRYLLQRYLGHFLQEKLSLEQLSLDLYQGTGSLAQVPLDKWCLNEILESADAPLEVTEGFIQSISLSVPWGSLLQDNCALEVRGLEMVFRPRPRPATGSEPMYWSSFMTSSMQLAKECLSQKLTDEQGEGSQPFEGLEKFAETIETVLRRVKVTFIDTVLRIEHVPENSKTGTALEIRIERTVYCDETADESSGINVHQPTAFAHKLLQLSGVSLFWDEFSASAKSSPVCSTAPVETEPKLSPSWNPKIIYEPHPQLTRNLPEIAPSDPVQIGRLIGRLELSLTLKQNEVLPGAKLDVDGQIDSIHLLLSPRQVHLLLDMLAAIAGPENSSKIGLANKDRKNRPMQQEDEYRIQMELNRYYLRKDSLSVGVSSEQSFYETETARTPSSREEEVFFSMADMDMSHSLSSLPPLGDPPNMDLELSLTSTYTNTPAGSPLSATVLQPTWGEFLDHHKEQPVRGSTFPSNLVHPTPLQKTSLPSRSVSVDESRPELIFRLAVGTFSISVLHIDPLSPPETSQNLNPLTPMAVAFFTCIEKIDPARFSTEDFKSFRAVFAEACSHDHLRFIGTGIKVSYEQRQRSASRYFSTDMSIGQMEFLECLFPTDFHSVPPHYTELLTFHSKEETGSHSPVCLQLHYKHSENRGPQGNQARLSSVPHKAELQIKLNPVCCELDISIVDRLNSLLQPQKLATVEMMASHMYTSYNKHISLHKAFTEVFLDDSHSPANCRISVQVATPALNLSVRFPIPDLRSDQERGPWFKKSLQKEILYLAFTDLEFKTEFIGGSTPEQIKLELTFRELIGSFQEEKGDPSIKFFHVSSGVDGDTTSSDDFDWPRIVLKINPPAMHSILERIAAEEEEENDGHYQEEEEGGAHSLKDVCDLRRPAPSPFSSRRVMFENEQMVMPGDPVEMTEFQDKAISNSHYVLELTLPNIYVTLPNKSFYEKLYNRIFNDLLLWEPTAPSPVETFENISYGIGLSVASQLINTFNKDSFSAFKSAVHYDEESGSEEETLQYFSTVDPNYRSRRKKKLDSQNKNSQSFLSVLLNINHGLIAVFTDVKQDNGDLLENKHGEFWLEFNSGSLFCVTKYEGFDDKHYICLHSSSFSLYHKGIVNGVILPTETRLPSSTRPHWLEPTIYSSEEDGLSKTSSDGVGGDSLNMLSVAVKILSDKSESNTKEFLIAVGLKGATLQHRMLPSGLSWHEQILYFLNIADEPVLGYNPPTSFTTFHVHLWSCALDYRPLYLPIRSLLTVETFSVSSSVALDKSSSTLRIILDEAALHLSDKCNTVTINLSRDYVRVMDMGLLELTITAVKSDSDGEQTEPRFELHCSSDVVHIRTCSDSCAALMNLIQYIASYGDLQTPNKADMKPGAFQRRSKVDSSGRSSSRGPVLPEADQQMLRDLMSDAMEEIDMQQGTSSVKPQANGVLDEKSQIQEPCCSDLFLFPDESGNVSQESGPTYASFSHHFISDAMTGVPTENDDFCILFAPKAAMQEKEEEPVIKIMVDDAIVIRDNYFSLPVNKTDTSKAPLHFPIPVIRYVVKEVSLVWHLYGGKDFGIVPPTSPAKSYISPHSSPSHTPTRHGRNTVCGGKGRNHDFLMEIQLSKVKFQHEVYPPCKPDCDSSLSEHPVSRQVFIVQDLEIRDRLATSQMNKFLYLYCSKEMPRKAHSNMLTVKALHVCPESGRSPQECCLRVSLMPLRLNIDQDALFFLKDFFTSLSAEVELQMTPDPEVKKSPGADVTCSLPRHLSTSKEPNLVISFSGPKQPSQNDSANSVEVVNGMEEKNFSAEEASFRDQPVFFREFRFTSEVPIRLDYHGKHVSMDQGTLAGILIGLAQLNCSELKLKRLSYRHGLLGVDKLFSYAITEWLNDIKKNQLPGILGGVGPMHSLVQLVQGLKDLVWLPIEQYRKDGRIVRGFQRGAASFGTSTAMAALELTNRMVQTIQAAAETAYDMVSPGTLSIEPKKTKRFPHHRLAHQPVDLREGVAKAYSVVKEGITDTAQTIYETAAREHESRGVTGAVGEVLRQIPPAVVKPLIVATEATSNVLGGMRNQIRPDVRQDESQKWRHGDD
# UniProt P61421, whole entry, looked up: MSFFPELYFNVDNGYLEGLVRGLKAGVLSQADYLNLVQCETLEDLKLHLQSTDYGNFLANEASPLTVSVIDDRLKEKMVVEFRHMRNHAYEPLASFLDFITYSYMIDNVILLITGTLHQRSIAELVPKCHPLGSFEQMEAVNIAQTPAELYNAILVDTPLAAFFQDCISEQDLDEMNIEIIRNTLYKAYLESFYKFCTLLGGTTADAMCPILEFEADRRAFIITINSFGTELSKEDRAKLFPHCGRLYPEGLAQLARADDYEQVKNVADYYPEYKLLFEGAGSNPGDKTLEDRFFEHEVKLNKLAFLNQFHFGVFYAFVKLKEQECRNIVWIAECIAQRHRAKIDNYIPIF
# UniProt O00244: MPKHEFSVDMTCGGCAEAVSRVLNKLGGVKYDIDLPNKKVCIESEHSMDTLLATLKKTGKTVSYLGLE
# UniProt Q8WYN0: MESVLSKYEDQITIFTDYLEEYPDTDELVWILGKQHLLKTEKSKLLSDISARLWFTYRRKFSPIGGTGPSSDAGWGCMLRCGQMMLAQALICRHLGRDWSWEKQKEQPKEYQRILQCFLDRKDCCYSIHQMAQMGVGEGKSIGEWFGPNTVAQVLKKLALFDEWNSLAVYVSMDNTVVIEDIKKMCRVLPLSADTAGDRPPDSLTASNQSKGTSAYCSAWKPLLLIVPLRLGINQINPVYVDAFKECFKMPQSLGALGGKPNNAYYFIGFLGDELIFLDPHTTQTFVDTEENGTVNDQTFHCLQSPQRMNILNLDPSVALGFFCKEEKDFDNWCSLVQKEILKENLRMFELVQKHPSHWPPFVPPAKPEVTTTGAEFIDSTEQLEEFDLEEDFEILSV
# UniProt Q5TC12: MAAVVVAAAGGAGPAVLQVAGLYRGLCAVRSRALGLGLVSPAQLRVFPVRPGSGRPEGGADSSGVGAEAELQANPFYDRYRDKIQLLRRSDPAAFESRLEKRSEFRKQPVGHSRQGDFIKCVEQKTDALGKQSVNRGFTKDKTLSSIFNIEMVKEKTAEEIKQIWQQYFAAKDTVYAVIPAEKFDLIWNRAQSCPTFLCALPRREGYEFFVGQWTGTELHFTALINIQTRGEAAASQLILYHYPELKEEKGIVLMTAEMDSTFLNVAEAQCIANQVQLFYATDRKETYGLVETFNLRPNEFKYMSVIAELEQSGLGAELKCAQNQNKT
# UniProt O94766: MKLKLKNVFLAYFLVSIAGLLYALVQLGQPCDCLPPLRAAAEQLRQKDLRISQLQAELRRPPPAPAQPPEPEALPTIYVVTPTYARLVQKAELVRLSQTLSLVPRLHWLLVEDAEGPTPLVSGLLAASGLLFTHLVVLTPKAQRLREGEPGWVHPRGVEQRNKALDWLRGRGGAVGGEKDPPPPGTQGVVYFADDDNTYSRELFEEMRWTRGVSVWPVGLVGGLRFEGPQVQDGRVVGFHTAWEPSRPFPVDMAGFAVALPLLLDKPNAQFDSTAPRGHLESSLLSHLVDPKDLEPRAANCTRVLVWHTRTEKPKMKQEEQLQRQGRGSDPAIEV
# UniProt Q12797: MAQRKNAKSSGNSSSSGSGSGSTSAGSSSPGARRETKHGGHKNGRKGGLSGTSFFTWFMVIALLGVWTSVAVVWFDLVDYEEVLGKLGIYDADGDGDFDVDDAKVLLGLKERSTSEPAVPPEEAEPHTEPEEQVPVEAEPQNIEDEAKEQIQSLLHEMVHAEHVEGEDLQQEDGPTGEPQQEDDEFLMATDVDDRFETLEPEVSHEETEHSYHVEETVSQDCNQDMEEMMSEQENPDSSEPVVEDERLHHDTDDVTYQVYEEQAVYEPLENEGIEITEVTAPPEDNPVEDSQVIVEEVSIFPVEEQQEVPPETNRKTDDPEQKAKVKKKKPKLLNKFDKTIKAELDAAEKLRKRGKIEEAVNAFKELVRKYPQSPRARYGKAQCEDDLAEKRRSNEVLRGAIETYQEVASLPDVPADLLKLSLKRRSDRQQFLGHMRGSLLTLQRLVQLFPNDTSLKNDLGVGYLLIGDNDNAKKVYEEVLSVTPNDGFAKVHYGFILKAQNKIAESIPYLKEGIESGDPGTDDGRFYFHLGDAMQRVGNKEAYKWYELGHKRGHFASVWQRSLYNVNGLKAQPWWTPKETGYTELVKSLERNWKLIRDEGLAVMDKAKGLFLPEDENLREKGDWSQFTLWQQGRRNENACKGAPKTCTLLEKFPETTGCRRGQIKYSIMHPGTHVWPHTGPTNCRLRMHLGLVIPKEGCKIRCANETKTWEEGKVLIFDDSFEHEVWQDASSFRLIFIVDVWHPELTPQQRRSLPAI
# UniProt Q93050, whole entry, looked up: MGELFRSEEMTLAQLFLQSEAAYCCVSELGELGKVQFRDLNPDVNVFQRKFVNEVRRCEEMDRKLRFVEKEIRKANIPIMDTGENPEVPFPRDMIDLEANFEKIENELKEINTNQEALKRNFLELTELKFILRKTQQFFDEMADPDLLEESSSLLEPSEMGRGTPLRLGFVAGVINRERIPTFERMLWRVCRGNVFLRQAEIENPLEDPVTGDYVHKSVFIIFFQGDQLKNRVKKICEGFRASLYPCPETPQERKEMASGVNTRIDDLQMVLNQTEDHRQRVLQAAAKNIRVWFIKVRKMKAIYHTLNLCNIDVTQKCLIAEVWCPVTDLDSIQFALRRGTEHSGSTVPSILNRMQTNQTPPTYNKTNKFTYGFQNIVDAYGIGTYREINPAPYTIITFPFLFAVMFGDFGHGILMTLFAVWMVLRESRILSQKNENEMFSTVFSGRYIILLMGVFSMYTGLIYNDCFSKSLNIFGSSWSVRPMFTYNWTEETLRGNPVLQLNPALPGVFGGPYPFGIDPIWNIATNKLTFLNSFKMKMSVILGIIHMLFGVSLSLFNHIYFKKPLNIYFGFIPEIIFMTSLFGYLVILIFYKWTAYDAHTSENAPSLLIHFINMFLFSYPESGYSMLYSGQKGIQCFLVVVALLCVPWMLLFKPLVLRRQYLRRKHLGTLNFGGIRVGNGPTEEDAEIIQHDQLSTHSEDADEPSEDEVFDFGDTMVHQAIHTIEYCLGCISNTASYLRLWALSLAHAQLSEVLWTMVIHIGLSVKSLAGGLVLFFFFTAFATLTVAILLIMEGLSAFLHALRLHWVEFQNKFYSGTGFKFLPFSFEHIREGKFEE
# UniProt Q9Y679: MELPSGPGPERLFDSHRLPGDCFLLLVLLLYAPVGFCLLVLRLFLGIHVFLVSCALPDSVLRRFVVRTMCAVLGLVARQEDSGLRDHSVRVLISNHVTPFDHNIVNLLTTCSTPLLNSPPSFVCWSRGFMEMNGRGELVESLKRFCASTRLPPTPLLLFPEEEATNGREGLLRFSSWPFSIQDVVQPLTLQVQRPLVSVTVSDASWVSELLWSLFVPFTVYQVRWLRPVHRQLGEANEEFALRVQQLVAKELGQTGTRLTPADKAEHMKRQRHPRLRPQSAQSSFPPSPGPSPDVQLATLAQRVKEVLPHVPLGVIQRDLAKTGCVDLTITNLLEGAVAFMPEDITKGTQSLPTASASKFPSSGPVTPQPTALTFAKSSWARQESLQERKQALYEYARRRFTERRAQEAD
# UniProt O75787, whole entry, looked up: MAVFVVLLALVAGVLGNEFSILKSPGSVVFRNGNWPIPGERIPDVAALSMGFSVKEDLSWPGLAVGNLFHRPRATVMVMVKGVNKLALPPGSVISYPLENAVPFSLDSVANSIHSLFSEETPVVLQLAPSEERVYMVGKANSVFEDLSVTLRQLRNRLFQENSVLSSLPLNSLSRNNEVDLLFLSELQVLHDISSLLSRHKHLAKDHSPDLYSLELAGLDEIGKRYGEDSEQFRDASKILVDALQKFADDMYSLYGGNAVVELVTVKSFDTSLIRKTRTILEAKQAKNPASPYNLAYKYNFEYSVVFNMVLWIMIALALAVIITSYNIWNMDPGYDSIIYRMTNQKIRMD
# The list shows a part of the results.
# What was measured:
# Experiment in all cases: log2 fold change, soluble protein after heating vs DMSO (PISA); higher = thermal stabilisation; K562 lysate, 10 uM; active = over 0.2 and 3.5 SD of the protein, either way, in both replicates (recomputed)
# erlotinib = compound: C#Cc1cccc(Nc2ncnc3cc(OCCOC)c(OCCOC)cc23)c1 [erlotinib]
# Summary of the method: (§1)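 Soluble protein was defined as the supernatant remaining after 21,000xg for 90 min, following pooling of heated aliquots and adjustment to 0.5% NP-40 at 4°C. Before that, crude K562 extract at 1 mg/mL protein in PBS pH 7.4 with 1 mM MgCl2 was treated with 10 μM compound for 30 min and heated for 3 min across 48°C-58°C. Quantification used TMTpro 16plex LC-MS/MS with channel sums equalised, and values are log-two fold changes in thermal stability relative to solvent controls from duplicates.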
# [1] = compound: C/C(=N\NC(=O)C1=CC(=CC=C1)S(=O)(=O)N2CCOCC2)/C3=C(C=CC(=C3)Cl)O
# Summary of the method: as §1
# [2] = compound: C1=CC(=CC=C1C2=NC3=C(N2)C=C(C=C3)C(=O)N)OC4=CC=C(C=C4)Cl
# Summary of the method: as §1
# [3] = compound: C1=CC2=C(C=CC(=C2)/C=C\3/C(=O)NC(=NCC4=CC=CS4)S3)N=C1
# Summary of the method: as §1
# [4] = compound: C1=CC2=NC=CN=C2C=C1/C=C/3\C(=O)NC(=O)S3
# Summary of the method: as §1
# [5] = compound: C1=CC=C(C=C1)C2=NC(=C(N2)C3=CC=NC=C3)C4=CC(=C(C=C4)Cl)O
# Summary of the method: as §1
# [6] = compound: C1=CC=C2C(=C1)C3=NNC4=CC=CC(=C43)C2=O
# Summary of the method: as §1
# [7] = compound: C1CCN(C1)C(=O)NC2=CC=CC(=C2)NC3=NC=C(C(=N3)NCCC4=CN=CN4)Br
# Summary of the method: as §1
# [8] = compound: C1CN(CCC1(CC2=CC=C(C=C2)Cl)N)C3=NC=NC4=C3C=CN4
# Summary of the method: as §1
# IRAK-1-4 Inhibitor I = compound: C1COCCN1CCN2C3=CC=CC=C3N=C2NC(=O)C4=CC(=CC=C4)[N+](=O)[O-] [IRAK-1-4 Inhibitor I]
# Summary of the method: as §1
# ibrutinib = compound: C=CC(=O)N1CCC[C@@H](n2nc(-c3ccc(Oc4ccccc4)cc3)c3c(N)ncnc32)C1 [ibrutinib]
# Summary of the method: as §1
# [9] = compound: CC(=O)c1cnc2ccc(-c3cc(Cl)c(O)c(Cl)c3)nc2c1N[C@H]1CC[C@H](CN(C)C)CC1
# Summary of the method: as §1
# ralimetinib = compound: CC(C)(C)Cn1c(N)nc2ccc(-c3[nH]c(C(C)(C)C)nc3-c3ccc(F)cc3)nc21 [ralimetinib]
# Summary of the method: as §1
# [10] = compound: CC(C)(O)CC(=O)NCCn1ccc2ncnc(Nc3ccc(Oc4cccc(C(F)(F)F)c4)c(Cl)c3)c21
# Summary of the method: as §1
# [11] = compound: CC(C)C1=C2N=C(C=C(N2N=C1)NCC3=CC=CC=C3)NCCCCCCN
# Summary of the method: as §1
# [12] = compound: CC1=C(C(CC(=O)N1)C2=CC=C(C=C2)C(F)(F)F)C(=O)NC3=C(C=C4C(=C3)C=NN4)F
# Summary of the method: as §1
# [13] = compound: CC1=C(C2=C(C=C1)C(=O)C3=CC=CC=C3N2CCCN)C
# Summary of the method: as §1
# [14] = compound: CC1=C(C=C(C=C1)NC(=O)C2=CC(=CC=C2)C(C)(C)C#N)NC3=CC4=C(C=C3)N=CN(C4=O)C
# Summary of the method: as §1
# [15] = compound: CC1=C(C=C(C=C1)NC(=O)C2=CC(=CC=C2)N(C)C)NC(=O)C3=CC=C(C=C3)O
# Summary of the method: as §1
# [16] = compound: CC1=CC=C(C=C1)SC2=C3C=C(SC3=CN=C2)C(=O)N
# Summary of the method: as §1
Target,log2 fold change (erlotinib),log2 fold change [1],log2 fold change [2],log2 fold change [3],log2 fold change [4],log2 fold change [5],log2 fold change [6],log2 fold change [7],log2 fold change [8],log2 fold change (IRAK-1-4 Inhibitor I),log2 fold change (ibrutinib),log2 fold change [9],log2 fold change (ralimetinib),log2 fold change [10],log2 fold change [11],log2 fold change [12],log2 fold change [13],log2 fold change [14],log2 fold change [15],log2 fold change [16]
ATP6V1A (UniProt P38606),inactive: -0.01,inactive: -0.01,inactive: 0.002,inactive: -0.004,inactive: -0.005,inactive: 0.01,inactive: 0.028,inactive: -0.006,inactive: 0.003,inactive: 0.02,inactive: 0.034,inactive: 0.004,inactive: -0.001,inactive: -0.007,inactive: -0.005,inactive: -0.017,inactive: 0.01,inactive: -0.034,inactive: -0.033,inactive: -0.005
ATG2B (UniProt Q96BY7),inactive: -0.001,inactive: 0.048,inactive: -0.042,inactive: -0.022,inactive: 0.01,inactive: -0.013,inactive: -0.002,inactive: 0.007,inactive: 0.017,inactive: 0.017,inactive: 0.003,inactive: 0.013,inactive: 0.036,inactive: -0.057,inactive: -0.016,inactive: 0.006,inactive: 0.017,inactive: 0.016,inactive: 0,inactive: -0.024
ATP6V0D1 (UniProt P61421),inactive: 0.007,inactive: 0.014,inactive: -0.057,inactive: 0.014,inactive: -0.03,inactive: 0.009,inactive: 0.059,inactive: -0.052,inactive: 0.011,inactive: -0.011,inactive: 0.037,inactive: -0.048,inactive: -0.008,inactive: -0.01,inactive: -0.017,inactive: -0.056,inactive: 0.034,inactive: 0.016,inactive: -0.023,inactive: 0.045
ATOX1 (UniProt O00244),inactive: 0.025,inactive: 0.105,inactive: -0.057,inactive: 0.019,inactive: 0.023,inactive: -0.055,inactive: 0.039,inactive: -0.029,inactive: 0.049,inactive: 0.019,inactive: 0.161,inactive: -0.006,inactive: 0.015,inactive: 0.001,inactive: -0.047,inactive: -0.018,inactive: 0.067,inactive: 0.03,inactive: 0.071,inactive: 0.066
ATG4A (UniProt Q8WYN0),inactive: 0.031,inactive: -0.087,inactive: -0.055,inactive: -0.01,inactive: 0.007,inactive: 0.01,inactive: -0.023,inactive: -0.015,inactive: 0.038,inactive: -0.001,inactive: 0.032,inactive: -0.006,inactive: 0.011,inactive: -0.051,inactive: -0.055,inactive: -0.006,inactive: -0.004,inactive: 0.053,inactive: 0.021,inactive: -0.014
ATPAF1 (UniProt Q5TC12),inactive: -0.029,inactive: -0.028,inactive: 0.01,inactive: 0.034,inactive: 0.011,inactive: -0.017,inactive: -0.038,inactive: -0.041,inactive: 0.018,inactive: 0.003,inactive: -0.004,inactive: -0.003,inactive: -0.012,inactive: -0.029,inactive: 0.002,inactive: 0.024,inactive: -0.001,inactive: 0.041,inactive: -0.008,inactive: -0.037
B3GAT3 (UniProt O94766),inactive: -0.045,inactive: -0.068,inactive: -0.079,inactive: 0.028,inactive: -0.017,inactive: -0.097,inactive: 0.002,inactive: -0.066,inactive: 0.01,inactive: 0.052,inactive: -0.004,inactive: -0.001,inactive: 0.082,inactive: -0.05,inactive: 0.002,inactive: 0.027,inactive: -0.033,inactive: -0.03,inactive: -0.006,inactive: 0.034
ASPH (UniProt Q12797),inactive: 0.003,inactive: -0.028,inactive: -0.013,inactive: 0.075,inactive: -0.011,inactive: 0.006,inactive: -0.022,inactive: -0.011,inactive: 0.01,inactive: -0.016,inactive: 0.015,inactive: -0.004,inactive: -0.006,inactive: -0.001,inactive: -0.028,inactive: 0.052,inactive: 0.076,inactive: -0.025,inactive: 0.025,inactive: 0
ATP6V0A1 isoform 3 (UniProt Q93050),inactive: -0.011,inactive: -0.013,inactive: 0.036,inactive: -0.025,inactive: 0.018,inactive: 0.026,inactive: -0.031,inactive: -0.017,inactive: -0.028,inactive: 0.036,inactive: 0.03,inactive: -0.007,inactive: 0.005,inactive: -0.037,inactive: 0.008,inactive: 0.01,inactive: -0.025,inactive: 0.028,inactive: -0.05,inactive: -0.01
ATF7IP isoform 4 (UniProt Q6VMQ6),inactive: 0.012,inactive: -0.013,inactive: 0.063,inactive: 0.032,inactive: -0.035,inactive: 0.054,inactive: -0.007,inactive: -0.063,inactive: 0.023,inactive: 0.02,inactive: -0.049,inactive: 0.013,inactive: 0.012,inactive: -0.042,inactive: -0.01,inactive: -0.044,inactive: 0.007,inactive: -0.004,inactive: -0.015,inactive: 0.014
ATM (UniProt Q13315),inactive: 0.02,inactive: -0.031,inactive: -0.02,inactive: -0.064,inactive: -0.052,inactive: -0.001,inactive: 0.043,inactive: -0.016,inactive: -0.042,inactive: 0.007,inactive: 0.027,active: 0.253,inactive: 0.013,inactive: -0.021,inactive: 0.04,inactive: 0.002,inactive: -0.027,inactive: -0.014,inactive: -0.015,inactive: -0.013
ATP5F1A (UniProt P25705),inactive: -0.027,inactive: -0.023,inactive: 0.011,inactive: 0.001,inactive: 0.003,inactive: -0.016,inactive: 0.005,inactive: 0.022,inactive: -0.008,inactive: 0.011,inactive: -0.01,inactive: -0.01,inactive: -0.006,inactive: -0.016,inactive: -0.002,inactive: -0.025,inactive: 0.022,inactive: 0.004,inactive: 0.003,inactive: 0
AUP1 (UniProt Q9Y679),inactive: 0.122,inactive: 0.048,inactive: -0.038,inactive: 0.027,inactive: -0.01,inactive: -0.041,inactive: 0.056,inactive: 0.027,inactive: 0.003,inactive: 0.012,inactive: -0.014,inactive: 0.073,inactive: -0.031,inactive: 0.032,inactive: -0.045,inactive: 0.004,inactive: -0.016,inactive: -0.041,inactive: -0.015,inactive: -0.008
ATP6V1B1 (UniProt P15313),inactive: -0.044,inactive: 0.014,inactive: 0.027,inactive: -0.036,inactive: 0.013,inactive: -0.02,inactive: 0.006,inactive: -0.033,inactive: 0.001,inactive: 0.019,inactive: -0.001,inactive: 0,inactive: 0.037,inactive: -0.025,inactive: -0.013,inactive: 0.024,inactive: -0.011,inactive: 0.005,inactive: 0.031,inactive: -0.015
ASMTL (UniProt O95671),inactive: 0.008,inactive: 0.004,inactive: 0.013,inactive: 0.001,inactive: 0.029,inactive: -0.005,inactive: -0.007,inactive: 0.001,inactive: 0.022,inactive: 0.005,inactive: -0.001,inactive: 0.017,inactive: 0.019,inactive: -0.018,inactive: -0.023,inactive: -0.05,inactive: 0,inactive: -0.01,inactive: 0.029,inactive: -0.002
ATP6AP2 (UniProt O75787),inactive: 0.024,inactive: -0.016,inactive: -0.041,inactive: 0.072,inactive: 0.07,inactive: -0.019,inactive: -0.015,inactive: -0.085,inactive: -0.041,inactive: 0.012,inactive: 0.037,inactive: 0.113,inactive: 0.009,inactive: -0.049,inactive: -0.021,inactive: 0.013,inactive: -0.029,inactive: 0.017,inactive: -0.014,inactive: -0.01

# Part of the list above, with tabs:
Target	log2 fold change (erlotinib)	log2 fold change [1]	log2 fold change [2]	log2 fold change [3]	log2 fold change [4]	log2 fold change [5]	log2 fold change [6]	log2 fold change [7]	log2 fold change [8]	log2 fold change (IRAK-1-4 Inhibitor I)	log2 fold change (ibrutinib)	log2 fold change [9]	log2 fold change (ralimetinib)	log2 fold change [10]	log2 fold change [11]	log2 fold change [12]	log2 fold change [13]	log2 fold change [14]	log2 fold change [15]	log2 fold change [16]
B3GAT3 (UniProt O94766)	inactive: -0.045	inactive: -0.068	inactive: -0.079	inactive: 0.028	inactive: -0.017	inactive: -0.097	inactive: 0.002	inactive: -0.066	inactive: 0.01	inactive: 0.052	inactive: -0.004	inactive: -0.001	inactive: 0.082	inactive: -0.05	inactive: 0.002	inactive: 0.027	inactive: -0.033	inactive: -0.03	inactive: -0.006	inactive: 0.034
AUP1 (UniProt Q9Y679)	inactive: 0.122	inactive: 0.048	inactive: -0.038	inactive: 0.027	inactive: -0.01	inactive: -0.041	inactive: 0.056	inactive: 0.027	inactive: 0.003	inactive: 0.012	inactive: -0.014	inactive: 0.073	inactive: -0.031	inactive: 0.032	inactive: -0.045	inactive: 0.004	inactive: -0.016	inactive: -0.041	inactive: -0.015	inactive: -0.008
